The values that follow come from the supplement of paper PMC11348887.

Common to all, as to details: 5 µM; treatment: days 7-14 after plating, readout day 21
Test [1] deals with hPSC-derived cortical neurons (WA09). Put plainly: nucleus area z-score vs screen plate; higher = larger nuclei (more mature).
Test [2] shares this test system. The experiment in a line: total neurite length per nucleus (MAP2) z-score; higher = more neurite growth.
Test [3] shares this test system. Put plainly: nucleus roundness z-score vs screen plate; higher = rounder nuclei (more mature).
For test [4] the test system is unchanged. Put plainly: KCl-induced FOS+/EGR-1+ double-positive nuclei fraction z-score (KCl minus unstimulated); higher = stronger activity-induced IEG response.

Structures can show the parent of a compound that is named as a salt. This is one part of the list. Small differences around the control level are noise.

In turn, `CCc1c(C(=O)C(N)=O)c2c(OCC(=O)O)cccc2n1Cc1ccccc1` registered a nucleus area z-score in test [1] of 0.52. The “total neurite length per nucleus (z-score)” value in test [2] was -0.503. In test [3], this compound gave a nucleus roundness z-score of 0.294. The “KCl-induced FOS+/EGR-1+ double-positive nuclei fraction z-score” value in test [4] worked out at 0.0079.

Compound `O=[N+]([O-])O[C@@H]1CO[C@H]2[C@@H]1OC[C@@H]2O` [Isosorbide Mononitrate] yielded a nucleus area z-score in test [1] of 0.374. In test [2], the “total neurite length per nucleus (z-score)” value worked out at 0.00495. In test [3], this compound yielded a nucleus roundness z-score of -0.0915. Moreover, the “KCl-induced FOS+/EGR-1+ double-positive nuclei fraction z-score” value in test [4] worked out at 0.27.

`NCC1(CC(=O)O)CCCCC1` [Gabapentin HCl] displayed a nucleus area z-score in test [1] of -0.179. For the same compound, the “total neurite length per nucleus (z-score)” value in test [2] was found to be 0.109. The compound also yielded a nucleus roundness z-score in test [3] of 0.029. Moreover, the “KCl-induced FOS+/EGR-1+ double-positive nuclei fraction z-score” value in test [4] came out at 0.477.

In turn, `Cc1cc(C(C#N)c2ccc(Cl)cc2)c(Cl)cc1NC(=O)c1cc(I)cc(I)c1O` (stereo not given) [Closantel] had a nucleus area z-score in test [1] of 0.445. Further, the “total neurite length per nucleus (z-score)” value in test [2] is -0.988. The nucleus roundness z-score in test [3] was -0.662. Also, the “KCl-induced FOS+/EGR-1+ double-positive nuclei fraction z-score” value in test [4] was -1.02.

Compound `CC1=C(O)C(=O)C=C2C1=CC=C1[C@@]2(C)CC[C@@]2(C)[C@@H]3C[C@](C)(C(=O)O)CC[C@]3(C)CC[C@]12C` [Celastrol] returned a nucleus area z-score in test [1] of -3.01. The “total neurite length per nucleus (z-score)” value in test [2] is -1.67. Moreover, in test [3], the nucleus roundness z-score is -4.26. In test [4], the “KCl-induced FOS+/EGR-1+ double-positive nuclei fraction z-score” value was -0.459.

Consider `CN1[C@@H]2C[C@@H](OC(=O)[C@H](CO)c3ccccc3)C[C@H]1[C@@H]1O[C@@H]12` [Scopolamine HBr], for which the nucleus area z-score in test [1] was -0.107. Besides, in test [2], the “total neurite length per nucleus (z-score)” value was found to be 1.01. In addition, the nucleus roundness z-score in test [3] was determined as 0.744. Moreover, the “KCl-induced FOS+/EGR-1+ double-positive nuclei fraction z-score” value in test [4] was 0.742.

In turn, `c1ccc2c(c1)Nc1ccccc1S2` [Phenothiazine] returned a nucleus area z-score in test [1] of -0.144. In test [2], the “total neurite length per nucleus (z-score)” value was determined as 0.29. For the same compound, the nucleus roundness z-score in test [3] was -0.0837. In addition, in test [4], the “KCl-induced FOS+/EGR-1+ double-positive nuclei fraction z-score” value was found to be 0.623.

Consider `CCC1(C)CC(=O)NC(=O)C1` [Bemegride], for which the nucleus area z-score in test [1] is 0.124. For the same compound, in test [2], the “total neurite length per nucleus (z-score)” value was 0.293. Further, in test [3], the nucleus roundness z-score is -0.151. The “KCl-induced FOS+/EGR-1+ double-positive nuclei fraction z-score” value in test [4] is -0.0953.

For `COc1ccc2c(c1)[C@]13CCCC[C@@H]1[C@H](C2)N(C)CC3` [Dextromethorphan hydrobromide hydrate], in test [1], the nucleus area z-score is -0.218. Further, in test [2], the “total neurite length per nucleus (z-score)” value turned out to be 0.691. Besides, in test [3], the nucleus roundness z-score was 1.22. The “KCl-induced FOS+/EGR-1+ double-positive nuclei fraction z-score” value in test [4] is -0.107.

Compound `CN[C@@H]1C[C@H]2O[C@@](C)([C@@H]1OC)n1c3ccccc3c3c4c(c5c6ccccc6n2c5c31)C(=O)NC4` [Staurosporine] registered a nucleus area z-score in test [1] of -9.29. The “total neurite length per nucleus (z-score)” value in test [2] was -3. This compound displayed a nucleus roundness z-score in test [3] of -4.06. The “KCl-induced FOS+/EGR-1+ double-positive nuclei fraction z-score” value in test [4] is -0.813.
